Results taken from patent US5574009A, “Method of stimulating myelination of cells” (Trustees of the University Of Pennsylvania, priority 1994, dated 1996).
At least one peptide structure holds a part that was inferred or is arguable (an end, a ring closure or a residue). Where no end group is shown, it is not given here.

Tested on: neonatal rat optic nerve cultures
Assay: Stimulation of GalC expression in neonatal rat optic nerve glial cultures
Assay type: cell-based
Conditions: PND-1 optic nerve cultures; VL SH at concentrations as low as 50 μg/ml

## CNGSHVPDHDVTEERDE [Peptide F, C N G S H V P D H D V T E E R D E]
  induction of GalC appearance by peptides: ineffective
